The source of these data is patent publication US20230018989A1, “INHIBITING THE RNA […] METTL3 OR ITS INTERACTION WITH EIF3H TO […] ONCOGENE TRANSLATION AND TUMORIGENESIS” (Children's Medical Center Corporation, priority 2019, published 2023).

Protein sequences, listed by entry. Tags and fused reporters are not part of them. Lines headed by an entry give the natural chain unless they say otherwise; changes in a name come on top.
UniProt O15372: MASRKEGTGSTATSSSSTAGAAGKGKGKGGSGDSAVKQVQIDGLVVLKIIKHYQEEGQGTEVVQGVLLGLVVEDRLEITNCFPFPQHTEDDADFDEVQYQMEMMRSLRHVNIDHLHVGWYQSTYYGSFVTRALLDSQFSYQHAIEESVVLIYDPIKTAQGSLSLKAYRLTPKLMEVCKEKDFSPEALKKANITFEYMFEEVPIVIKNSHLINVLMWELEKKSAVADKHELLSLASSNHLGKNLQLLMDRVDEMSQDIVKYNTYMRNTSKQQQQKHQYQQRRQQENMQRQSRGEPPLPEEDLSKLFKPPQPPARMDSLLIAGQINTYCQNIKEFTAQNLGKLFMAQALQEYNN
UniProt Q86U44: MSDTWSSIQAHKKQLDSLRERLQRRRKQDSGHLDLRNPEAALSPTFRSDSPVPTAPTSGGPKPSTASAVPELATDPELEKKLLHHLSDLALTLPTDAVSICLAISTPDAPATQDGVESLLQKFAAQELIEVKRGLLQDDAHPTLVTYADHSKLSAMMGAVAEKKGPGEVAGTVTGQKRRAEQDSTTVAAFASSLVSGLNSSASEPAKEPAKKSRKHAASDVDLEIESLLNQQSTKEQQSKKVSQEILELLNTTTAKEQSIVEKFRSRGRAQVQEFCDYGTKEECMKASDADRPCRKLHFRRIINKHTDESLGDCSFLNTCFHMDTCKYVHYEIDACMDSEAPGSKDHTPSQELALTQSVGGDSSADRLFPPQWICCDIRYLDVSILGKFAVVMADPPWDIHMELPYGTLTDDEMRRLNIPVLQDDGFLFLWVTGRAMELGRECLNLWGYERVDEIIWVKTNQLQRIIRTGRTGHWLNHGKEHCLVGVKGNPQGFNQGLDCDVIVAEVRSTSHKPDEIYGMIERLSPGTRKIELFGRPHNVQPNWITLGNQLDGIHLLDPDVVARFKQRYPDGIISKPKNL

No constants are given. Whether binding was seen depends on the method and setting. Binding seen in cells or lysates may run through a third protein. Some binding calls cover weakened binding; strength is not graded here.

Test [1] concerns the target GST-eIF3h (N-terminal GST-fused human eIF3h, full length) (human) (UniProt O15372). Put plainly: GST pull-down (refers back to FIG. 5E).
For test [2] the target is unchanged. Put plainly: Far-Western and GST pull-down (FIG. 5 legend title).
Test [3] shares this target. As to the kind of experiment: in vitro GST pull-down with purified recombinant proteins, Western blot.
Test [4] concerns the target GST-eIF3h (29-222) (human) (UniProt O15372). As to the kind of experiment: GST pull-down of eIF3h deletion mutants; co-purified His-METTL3 shown by Western blot.

On to “recombinant His-tagged human METTL3 (1-200) (from UniProt Q86U44 1-200)”, for which the binding result in test [1], in test [2] and in test [3] was “binds” in each case.
As for “recombinant His-tagged human METTL3 (full-length) (from UniProt Q86U44 1-580) (enzyme)”, the binding entry in test [4] is reported as “binds”.
